# Out of some 410,000 compounds screened, about 18,000 (4.4%) were called active. Inconclusive results, whose numbers are uncertain, are shown with a selection of clear calls. Rule as the data show it: active = activity change below about -60%; inconclusive = no clear call, values can overlap the other calls; inactive = above about -39%. Where a SMILES comes first, the peptide text is derived from it.
# Assay: qHTS Assay for inhibitors of the human cytomegalovirus (HCMV)
# Settings: HFF cells, HCMV-luciferase reporter, 72 h; at 57.5 µM; active compounds read low
# Description: NCGC Assay Overview: Infection with human cytomegalovirus (HCMV) continues to pose significant threats for pregnant women and immunocompromised hosts. HCMV causes serious morbidity and mortality in transplant recipients, and congenital HCMV is the leading infectious cause of mental retardation and deafness in children. In the 1990s, the annual costs associated with the disease burden of congenital CMV were estimated at around $2 billion. A HCMV vaccine is not available yet and HCMV therapies result in intolerable side effects and emergence of drug resistant viruses. […] Towards this goal we have developed and characterized a luciferase HCMV reporter that was initially used in 96 well plates and then optimized to 1536-well plates for utilization in screening of the MLSMR collection, the NGCG diversity collection and the NCGC Pharmaceutical Collection of approved and investigational drugs.
# NCGC Assay Protocol Summary:
# This is a cell-based assay for HCMV inhibition in HFFs cells. The screening used 2 compound doses and the HCMV-luciferase at MOI of 1 PFU/cell. Cells were treated and infected with HCMV. At 72 h post infection cell lysates were collected and luciferase activity was determined using the Glomax-Multi + Detection System (Promega, Madison, WI). Data were normalized to the controls for basal activity (buffer only) and known HCMV inhibitors Salinmoycin.
# 1536-well assay protocol for the assay:
# (1) Add 3 ul CMV/HFF cell culture. 1000 cells/well in DMEM nirmal media.
# (2) Incubate 16 hr at 37C.
# (3) Add 23 nl control compound, 10uM of Salinomycin.
# (4) Add 23 nl compounds in DMSO solution.
# (5) Add 3 ul CMV suspension. Final 1 puf/ul, Virus stock 2000pfu/ul
# (6) Incubate 72 hrs at 37C.
# (7) Add 4 ul OneGlo Luc Reagent.
# (8) Incubate 5 min at room temperature.
# % is scaled to controls: 0 for no effect and ±100 for the full control effect.
row,Compound,"activity change, negative = inhibition"
1,COc1ccc(-n2nc(C(=O)NCC(=O)Nc3cc(OC)c(OC)c(OC)c3)c3ccccc3c2=O)cc1OC,inconclusive: -58.3%
2,COc1ccc(-n2nnnc2SCC(=O)c2ccc3c(c2)OCCO3)c(OC)c1,inactive: -23.7%
3,Cc1ccc2c(c1)C(=O)c1ccccc1CS2=O (stereo unspecified),inconclusive: -45.6%
4,COc1ccccc1-c1sc2cc3c(cc2c1-c1ccc2c(c1)OCO2)OCO3,inconclusive: -41.2%
5,CCNC1(C#N)CCN(Cc2ccccc2)CC1,inconclusive: -55.6%
6,Cc1cccc(C(=O)O[C@@H]2[C@H](Cc3ccccc3)NS(=O)(=O)[C@H]3C[C@@H]4C=C[C@]23O4)c1,inactive: -14%
7,CCc1ccc(NC(=O)c2c(C(=O)Nc3ccccc3)sc3nc(C)cc(=O)n23)cc1,inconclusive: -50.3%
8,C=C(C)COc1ccc(-c2nc(N)nc(C(F)(F)F)c2-c2ccc(OC)cc2)c(O)c1,inactive: -23.8%
9,COc1cc(-c2noc(C3CC(=O)N(c4cc(C)ccc4C)C3)n2)cc(OC)c1OC (stereo unspecified),inactive: -4.77%
10,CCOc1cc(CNCCO)cc(Br)c1OCc1cccs1,inconclusive: -57.3%
11,C[C@H](CO)N1C[C@H](C)[C@@H](CN(C)Cc2ccc3c(c2)OCO3)Oc2ccc(NS(C)(=O)=O)cc2C1=O,inactive: 3.03%
12,CN(c1ccc(F)cc1)S(=O)(=O)c1ccc(Cl)c(C(=O)OCC(=O)NC2CC2)c1,inconclusive: -57.9%
13,O=C(Nc1cccc(Cl)c1)c1ccc(NCCCN2CCOCC2)c([N+](=O)[O-])c1,inconclusive: -48.9%
14,O=C(O)c1ccc(N2C(=O)/C(=C\c3ccccc3)N=C2c2ccccc2)cc1,inconclusive: -47.8%
15,COCC(=O)N1CCc2ccc(NC(=O)c3ccccc3Cl)cc2C1,inconclusive: -42.6%
16,CC1CCC(NC(=O)c2cccc(S(=O)(=O)N3CCOCC3)c2)CC1 (stereo unspecified),inconclusive: -49.7%
17,Cc1nc2scc(-c3ccccc3)c2c(=O)n1N=C1C=CC(=O)C=C1,inconclusive: -43.2%
18,Cc1cccc(-n2c(O)c(/C=C3/C(c4ccccc4)=Nc4ccccc43)c(=O)[nH]c2=O)c1,inconclusive: -43.2%
19,O=C(c1ccc(-c2ccc([N+](=O)[O-])cc2)o1)N1CCN(S(=O)(=O)c2cccs2)CC1,active: -60.6%
20,CN(C)c1cc[n+](CC(=O)c2ccc(Br)cc2)cc1,active: -73.6%
21,COc1ccc2[nH]c(C(=O)O)c(NS(=O)(=O)c3ccc(C)cc3C)c2c1,inactive: 16.4%
22,CCCCCCC[C@@H](C/C=C/CCC(=O)O)OC,inactive: 1.46%

# Look-ups from the list:
# Under activity change, negative = inhibition, Cc1nc2scc(-c3ccccc3)c2c(=O)n1N=C1C=CC(=O)C=C1 is entered as inconclusive: -43.2%
# Under activity change, negative = inhibition, CCNC1(C#N)CCN(Cc2ccccc2)CC1 is entered as inconclusive: -55.6%
# Under activity change, negative = inhibition, O=C(O)c1ccc(N2C(=O)/C(=C\c3ccccc3)N=C2c2ccccc2)cc1 is entered as inconclusive: -47.8%

# Remaining list, next part:

row,Compound,"activity change, negative = inhibition"
1,C/C(=N\NC(=O)c1ccc(Cn2cc(Br)cn2)o1)c1cccc(NC(=O)C(C)(C)C)c1,inconclusive: -58.6%
2,C/C(=N\NC(=O)c1ccccn1)C12CC3CC(CC(C3)C1)C2,inactive: -21%
3,CN(Cc1ccccc1)CC(O)COc1ccc(CNCCCOc2cccnc2)cc1 (stereo unspecified),inconclusive: -52.7%
4,O=C(COC(=O)Cc1ccc(Br)cc1)NCC1CCCCC1,inconclusive: -46.8%
5,COc1ccccc1NS(=O)(=O)c1cc(NC(=O)c2cc[n+]([O-])cc2)ccc1N1CCCC1,inconclusive: -53.2%
6,COc1cccc(NC(=O)c2nnn(Cc3ccc(OC)c(Br)c3)c2N)c1,inactive: 2.31%
7,CCSc1oc(-c2ccco2)nc1S(=O)(=O)c1ccc(F)cc1,inconclusive: -43.7%
8,O=C1C2CCc3ccccc3C2N1c1ccccc1 (stereo unspecified),inactive: 25.6%
9,Cc1cccc(N(C(=O)CCC(=O)Nc2cc(C)on2)C(C(=O)NC2CCCC2)c2cccnc2)c1 (stereo unspecified),inconclusive: -42.3%
10,Cc1ccc(CNC(=O)c2ccc3c(c2)nc2n3CCCC2)cc1,inactive: -2.98%
11,CN(Cc1ccccc1)C(=O)CC(c1ccccc1)c1cc(Cl)ccc1O (stereo unspecified),inactive: -29.7%
12,Cc1ccc(NC(=S)N(C)C(c2ccccc2)c2ccccc2)cc1C,inconclusive: -54.5%
13,Cc1csc(N=Nc2ccc(N(C)C)cc2)[n+]1[O-],inconclusive: -51.9%
14,CCOP(=O)(OCC)c1nc(-c2cccc3ccccc23)oc1NCc1ccccc1,inactive: -9.42%
15,COc1ccc(O)c(/C=N/Nc2nc(Nc3ccccc3)nc(-n3nc(C)cc3C)n2)c1,active: -77.5%
16,Cc1ccc(NC(=O)C2CCC(CNC(=O)[C@@H]3Cc4ccccc4CN3)CC2)cc1 (stereo partly specified),inconclusive: 0%
17,CC(C)c1cc(N2CCOCC2)n2ncc(-c3ccccc3)c2n1,inconclusive: -53.2%
18,Cc1cc(C(=O)CN2C(=O)c3ccccc3S2(=O)=O)c(C)n1CC1CCCO1 (stereo unspecified),active: -100%
19,O=c1cc(-c2ccccc2)ss1,inconclusive: -43.9%
20,O=C(NC(NC(=S)Nc1ccc(Cl)cc1)C(Cl)(Cl)Cl)c1ccco1 (stereo unspecified),inactive: -35.6%
21,Cc1nc2c(-c3ccc(F)cc3)c(C)nn2c(C)c1CCC(=O)N1CCN(c2ccc(F)cc2)CC1,inconclusive: -56.5%
22,CCOC(=O)/C(=C\c1ccc(Cl)cc1)c1nc2sc(C)c(C)c2c(=O)[nH]1,active: -75.1%

row,Compound,"activity change, negative = inhibition"
1,O=C(NCc1cccc(Cl)c1)c1cccc(OC2CCN(C(=O)C3CC3)CC2)c1,active: -70.2%
2,CC(=O)OC1(c2ccccc2)CCN(C)CC1(C)C (stereo unspecified),active: -80%
3,Cc1ccc(-c2nnn(CCC(=O)NC(C)(C)C)n2)cc1,inactive: -1.29%
4,CC(=O)c1cc(-c2ccccc2)n(CCC(=O)NCCc2ccccc2)c1C,inconclusive: 0%
5,O=C(Nc1ccc(OCC(=O)N2CCOCC2)cc1)c1cncc(Br)c1,inconclusive: -57.8%
6,CCOC(=O)Nc1cc(=O)c2ccccc2o1,inconclusive: -40.5%
7,NC1=NC[C@H](CC2CCCCC2)N1CCc1cc(C(F)(F)F)cc(C(F)(F)F)c1,active: -100%
8,CCOC(=O)N1CCN(S(=O)(=O)c2ccc(C)c(C(=O)NC3CCCCC3)c2)CC1,inactive: -24%
9,COCCCNc1nc(-c2ccc(Cl)cc2)nc2ccccc12,inactive: 33.3%
10,O=C(N/N=C/c1ccsc1)c1ccc2ccccc2n1,active: -67.3%
11,O=C(Nc1ccccc1F)C1CCCN1S(=O)(=O)c1ccc(Cl)cc1 (stereo unspecified),inconclusive: -49.9%
12,Cc1nn(Cc2cccc(C(=O)Nc3ccn(Cc4ccccc4)n3)c2)c(C)c1[N+](=O)[O-],inconclusive: -49.6%
13,COC(=O)[C@H](Cc1ccccc1)NC(=O)[C@@H](N)CC(=O)O (H-Asp-Phe-OMe),inconclusive: -50.4%
14,COC(=O)c1ccc(N2Cc3ccccc3/C2=N\C(=O)Nc2ccccc2)cc1,inconclusive: -47.5%
15,CN(Cc1ncc[nH]1)Cc1cn(-c2ccccc2)nc1-c1ccc2c(c1)OCO2,inconclusive: -58.7%
16,Cc1cc(C)c2c(=O)cc(C(=O)Nc3ccc(S(=O)(=O)Nc4onc(C)c4C)cc3)oc2c1,inactive: -29.3%
17,CCN(CC)CCSc1nnc2c3ccccc3n(Cc3ccccc3)c2n1,inconclusive: -49.1%
18,Cc1ccc(-n2c(SCC(=O)NCCC3=CCCCC3)nc3n[nH]c(C)c3c2=N)cc1Cl,active: -93.6%
19,COC(=O)c1cc(COC(=O)c2cccnc2SC)oc1C,inactive: -1.47%
20,Clc1nnc(Cl)c2c1ncn2Cc1ccccc1,inconclusive: -51.1%
21,CCC(C(=O)NCc1cccc(Br)c1)n1nc(C)c2c(C)n(-c3ccccc3)nc2c1=O (stereo unspecified),inconclusive: -40.8%
22,CCCCC(=O)OCC(=O)N1N=C(c2c[nH]c3ccccc23)C(O)C1c1ccc(OC)cc1 (stereo unspecified),active: -60.8%

row,Compound,"activity change, negative = inhibition"
1,CCn1c(SCC(=O)Nc2nccs2)nnc1-c1ccc(C)cc1,inactive: -14.1%
2,Cc1cccc(C)c1NC(=O)C(c1ccccc1)N1CCN(c2ccc(C(F)(F)F)cn2)CC1 (stereo unspecified),inactive: -8.5%
3,Nc1nc(=S)c2ncn(C3CCCC3)c2[nH]1,inactive: -4.26%
4,O=C(NNC(=O)c1ccccc1-n1cccc1)c1ccc(F)cc1,inconclusive: -40.3%
5,O=C1C(=Cc2ccccc2[N+](=O)[O-])Cc2ccccc21,active: -95.6%
6,Cc1cccc(NC(=O)CSc2nc3ccccc3c3nc(CCc4c(C)n[nH]c4C)nn23)c1,inconclusive: -58.9%
7,CC(=NCCc1c[nH]c2ccccc12)c1c(O)n(Cc2ccccc2)c(=O)[nH]c1=O,inconclusive: -42.9%
8,O=C(Nc1cc(S(=O)(=O)N2CCOCC2)ccc1OCC(F)(F)F)C1CCCC1,inconclusive: -56.7%
9,CCOc1ccccc1NC(=O)c1ccccc1NC(=O)c1ccco1,inactive: 24.1%
10,COc1ccccc1-c1nc(S(=O)(=O)c2ccccc2)c(N2CCC(C)CC2)o1,inactive: 7.66%
11,O=C(NC1CCCN(Cc2ccc(Cl)cc2)C1)c1cccc(N2CCCC2=O)c1 (stereo unspecified),inactive: -6.14%
12,COc1cccc(-c2nc(SCc3ccc(C)cc3)n3[nH]c(=O)cc3n2)c1,inactive: -3.77%
13,O=C(OCC(=O)N1CCN(c2ccccc2)CC1)c1cc(F)c(F)cc1Cl,inactive: -10.5%
14,CC(C)c1nnc(NC(=O)C2CCCCC2)s1,inconclusive: -48.5%
15,Cc1ccc(C)c(N2CCN(c3nc4ccc(Cl)cc4n4cnnc34)CC2)c1,inconclusive: -51.8%
16,Cc1ccc(NC(=O)c2ccccc2F)nc1,inactive: 60.3%
17,Cc1ccc(NC(=S)N2CCCCC2)cc1C,inactive: 32.3%
18,CN(C)c1ccc(NC(N)=S)cc1,inconclusive: -52.1%
19,CCN(CC(=O)Nc1c(F)cccc1F)C(=O)Cc1sc(C)nc1-c1ccc(F)cc1,inactive: -30.9%
20,CCSc1cc(N2CCCC2)nc(-c2cccc(C)c2)n1,active: -62.4%
